Some of the results follow.
What was measured:
Assay in all cases: log2 fold change, soluble protein after heating vs DMSO (PISA); higher = thermal stabilisation; K562 lysate, 10 uM; active = over 0.2 and 3.5 SD of the protein, either way, in both replicates (recomputed)
vemurafenib = compound: CCCS(=O)(=O)Nc1ccc(F)c(C(=O)c2c[nH]c3ncc(-c4ccc(Cl)cc4)cc23)c1F [vemurafenib]
Procedure, shortened: (§1)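 K562 pellets were dounce-homogenised in PBS pH 7.4 containing 1 mM MgCl2, and the crude extract, at 1 mg/mL protein, was exposed to 10 μM compound for 30 min. Aliquots were heated for 3 min across 48°C-58°C, pooled, brought to 0.5% NP-40 at 4°C and spun at 21,000xg for 90 min, with the supernatant taken as soluble protein. TMTpro 16plex LC-MS/MS with equalised channel sums quantified that protein. Values are log-two fold changes in thermal stability relative to solvent controls, taken from duplicates.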

Sequences of proteins named here, by UniProt entry; tags and fusion partners are left off. A change or cut given only in a name is not applied to a line headed by its entry.
UniProt Q14997: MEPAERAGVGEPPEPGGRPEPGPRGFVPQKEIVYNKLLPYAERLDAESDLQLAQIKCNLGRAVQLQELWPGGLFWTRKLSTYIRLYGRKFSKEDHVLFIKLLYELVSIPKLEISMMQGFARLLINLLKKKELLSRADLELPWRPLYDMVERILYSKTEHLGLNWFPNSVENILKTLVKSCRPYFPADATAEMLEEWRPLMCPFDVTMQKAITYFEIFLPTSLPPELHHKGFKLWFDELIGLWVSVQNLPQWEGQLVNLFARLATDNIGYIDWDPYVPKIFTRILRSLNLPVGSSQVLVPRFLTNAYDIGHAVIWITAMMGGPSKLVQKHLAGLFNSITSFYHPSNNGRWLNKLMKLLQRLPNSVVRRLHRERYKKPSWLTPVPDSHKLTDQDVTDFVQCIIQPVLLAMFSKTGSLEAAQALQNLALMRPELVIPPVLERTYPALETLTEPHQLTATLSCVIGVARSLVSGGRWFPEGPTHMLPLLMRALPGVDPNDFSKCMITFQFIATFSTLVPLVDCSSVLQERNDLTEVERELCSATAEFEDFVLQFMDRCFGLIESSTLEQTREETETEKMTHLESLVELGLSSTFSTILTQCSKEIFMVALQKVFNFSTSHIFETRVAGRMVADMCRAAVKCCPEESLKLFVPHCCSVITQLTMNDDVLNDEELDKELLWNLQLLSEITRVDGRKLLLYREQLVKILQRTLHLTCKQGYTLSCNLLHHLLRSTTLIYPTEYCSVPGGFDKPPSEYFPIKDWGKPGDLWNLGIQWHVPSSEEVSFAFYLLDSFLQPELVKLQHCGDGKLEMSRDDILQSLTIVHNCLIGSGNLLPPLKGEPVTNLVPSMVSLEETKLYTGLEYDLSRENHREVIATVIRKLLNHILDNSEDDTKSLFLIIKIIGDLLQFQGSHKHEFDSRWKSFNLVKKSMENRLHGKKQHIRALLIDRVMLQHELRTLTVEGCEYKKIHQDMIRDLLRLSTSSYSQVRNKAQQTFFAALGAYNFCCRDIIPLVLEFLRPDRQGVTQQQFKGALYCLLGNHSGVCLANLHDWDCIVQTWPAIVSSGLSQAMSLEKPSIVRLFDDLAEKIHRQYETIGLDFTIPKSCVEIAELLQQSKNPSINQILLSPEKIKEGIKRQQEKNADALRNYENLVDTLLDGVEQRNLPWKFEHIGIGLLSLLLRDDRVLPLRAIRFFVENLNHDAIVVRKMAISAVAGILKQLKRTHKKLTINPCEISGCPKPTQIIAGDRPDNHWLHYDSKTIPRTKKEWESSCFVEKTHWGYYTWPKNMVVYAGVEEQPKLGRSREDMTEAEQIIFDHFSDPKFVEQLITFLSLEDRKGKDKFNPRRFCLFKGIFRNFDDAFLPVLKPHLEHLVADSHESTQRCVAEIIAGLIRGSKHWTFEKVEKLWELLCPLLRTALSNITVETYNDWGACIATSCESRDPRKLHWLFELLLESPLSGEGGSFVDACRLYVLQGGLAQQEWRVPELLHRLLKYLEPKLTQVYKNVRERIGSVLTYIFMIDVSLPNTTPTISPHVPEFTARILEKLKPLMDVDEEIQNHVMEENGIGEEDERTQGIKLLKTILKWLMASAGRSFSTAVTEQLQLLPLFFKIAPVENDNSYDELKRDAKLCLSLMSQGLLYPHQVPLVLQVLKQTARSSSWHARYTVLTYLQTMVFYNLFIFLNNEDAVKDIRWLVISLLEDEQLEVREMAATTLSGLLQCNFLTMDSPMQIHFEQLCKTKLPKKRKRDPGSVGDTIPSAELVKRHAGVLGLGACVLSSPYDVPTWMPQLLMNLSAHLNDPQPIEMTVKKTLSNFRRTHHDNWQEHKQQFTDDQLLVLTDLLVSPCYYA
UniProt P28070, whole entry, looked up: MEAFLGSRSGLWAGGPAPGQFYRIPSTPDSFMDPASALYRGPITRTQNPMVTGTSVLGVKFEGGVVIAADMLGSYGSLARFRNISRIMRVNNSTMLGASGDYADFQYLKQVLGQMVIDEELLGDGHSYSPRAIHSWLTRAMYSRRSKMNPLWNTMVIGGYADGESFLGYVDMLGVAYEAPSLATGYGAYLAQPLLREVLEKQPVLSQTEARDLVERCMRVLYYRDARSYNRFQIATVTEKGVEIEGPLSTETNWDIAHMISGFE
UniProt Q9Y606: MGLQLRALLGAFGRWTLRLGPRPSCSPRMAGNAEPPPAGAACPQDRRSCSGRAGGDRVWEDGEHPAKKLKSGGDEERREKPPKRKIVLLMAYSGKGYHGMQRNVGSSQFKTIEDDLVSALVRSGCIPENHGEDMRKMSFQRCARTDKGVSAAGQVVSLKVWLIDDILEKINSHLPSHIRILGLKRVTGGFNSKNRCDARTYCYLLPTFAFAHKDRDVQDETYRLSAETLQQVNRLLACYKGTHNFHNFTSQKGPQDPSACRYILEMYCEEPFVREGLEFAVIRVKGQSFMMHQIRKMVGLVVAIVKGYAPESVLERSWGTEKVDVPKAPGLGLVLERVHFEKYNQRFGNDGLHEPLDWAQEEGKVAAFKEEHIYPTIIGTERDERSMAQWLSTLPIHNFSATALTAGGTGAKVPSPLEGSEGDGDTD
UniProt P25787: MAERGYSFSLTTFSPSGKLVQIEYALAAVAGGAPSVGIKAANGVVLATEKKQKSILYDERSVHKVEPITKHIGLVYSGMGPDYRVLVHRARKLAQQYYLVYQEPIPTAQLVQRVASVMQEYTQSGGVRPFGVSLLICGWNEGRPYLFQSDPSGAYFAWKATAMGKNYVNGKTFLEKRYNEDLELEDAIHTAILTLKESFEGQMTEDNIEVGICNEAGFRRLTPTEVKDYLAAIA
UniProt Q9P2B2: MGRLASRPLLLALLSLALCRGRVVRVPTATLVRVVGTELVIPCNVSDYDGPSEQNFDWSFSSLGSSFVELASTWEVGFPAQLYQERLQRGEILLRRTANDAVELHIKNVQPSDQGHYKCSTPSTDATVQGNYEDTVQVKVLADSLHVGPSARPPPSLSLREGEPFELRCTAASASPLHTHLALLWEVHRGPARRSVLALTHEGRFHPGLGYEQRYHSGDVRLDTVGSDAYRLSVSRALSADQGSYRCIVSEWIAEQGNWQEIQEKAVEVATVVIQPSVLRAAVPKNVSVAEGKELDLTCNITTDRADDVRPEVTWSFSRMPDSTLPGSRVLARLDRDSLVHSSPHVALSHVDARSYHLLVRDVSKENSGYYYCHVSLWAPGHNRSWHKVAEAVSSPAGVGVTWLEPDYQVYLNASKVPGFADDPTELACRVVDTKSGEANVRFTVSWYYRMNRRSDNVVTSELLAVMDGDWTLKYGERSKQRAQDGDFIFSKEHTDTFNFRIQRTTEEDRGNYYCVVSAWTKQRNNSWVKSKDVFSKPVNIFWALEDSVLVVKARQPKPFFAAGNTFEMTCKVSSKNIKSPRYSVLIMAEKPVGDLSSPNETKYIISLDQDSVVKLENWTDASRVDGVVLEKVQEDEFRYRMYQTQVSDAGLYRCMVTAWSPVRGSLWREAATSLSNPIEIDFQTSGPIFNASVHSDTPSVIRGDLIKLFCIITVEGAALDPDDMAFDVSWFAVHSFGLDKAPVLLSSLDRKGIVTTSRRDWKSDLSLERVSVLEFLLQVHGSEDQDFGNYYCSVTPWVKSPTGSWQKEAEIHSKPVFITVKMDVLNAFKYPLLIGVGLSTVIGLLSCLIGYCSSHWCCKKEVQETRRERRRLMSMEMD
UniProt P62333, whole entry, looked up: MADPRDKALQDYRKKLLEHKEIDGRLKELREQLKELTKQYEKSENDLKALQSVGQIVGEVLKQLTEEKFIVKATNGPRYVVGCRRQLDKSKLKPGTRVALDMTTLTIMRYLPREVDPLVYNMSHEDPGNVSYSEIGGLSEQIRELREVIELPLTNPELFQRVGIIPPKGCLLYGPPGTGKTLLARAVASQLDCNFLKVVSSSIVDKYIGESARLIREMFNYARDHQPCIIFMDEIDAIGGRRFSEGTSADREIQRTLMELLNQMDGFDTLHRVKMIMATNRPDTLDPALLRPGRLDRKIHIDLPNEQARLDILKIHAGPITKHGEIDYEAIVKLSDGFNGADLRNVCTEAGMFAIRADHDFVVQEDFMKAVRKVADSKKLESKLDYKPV
UniProt O14818: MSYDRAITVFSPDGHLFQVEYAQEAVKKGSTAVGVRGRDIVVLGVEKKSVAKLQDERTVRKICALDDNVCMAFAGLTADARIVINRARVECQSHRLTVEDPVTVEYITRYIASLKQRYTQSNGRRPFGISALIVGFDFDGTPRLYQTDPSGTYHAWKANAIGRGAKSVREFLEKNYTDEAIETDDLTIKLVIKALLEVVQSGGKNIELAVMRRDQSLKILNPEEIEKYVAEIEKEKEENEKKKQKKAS
UniProt P28065: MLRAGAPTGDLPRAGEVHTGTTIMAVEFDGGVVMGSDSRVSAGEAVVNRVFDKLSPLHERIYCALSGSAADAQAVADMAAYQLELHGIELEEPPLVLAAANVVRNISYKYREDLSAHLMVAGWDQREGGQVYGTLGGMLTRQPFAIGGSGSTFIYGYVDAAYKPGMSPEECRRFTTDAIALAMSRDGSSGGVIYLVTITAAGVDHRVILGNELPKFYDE
UniProt Q9BT73: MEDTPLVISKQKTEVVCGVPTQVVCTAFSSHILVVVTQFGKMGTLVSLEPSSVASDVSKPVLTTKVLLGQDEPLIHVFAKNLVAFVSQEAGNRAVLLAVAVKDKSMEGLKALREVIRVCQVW
UniProt Q9BVG9: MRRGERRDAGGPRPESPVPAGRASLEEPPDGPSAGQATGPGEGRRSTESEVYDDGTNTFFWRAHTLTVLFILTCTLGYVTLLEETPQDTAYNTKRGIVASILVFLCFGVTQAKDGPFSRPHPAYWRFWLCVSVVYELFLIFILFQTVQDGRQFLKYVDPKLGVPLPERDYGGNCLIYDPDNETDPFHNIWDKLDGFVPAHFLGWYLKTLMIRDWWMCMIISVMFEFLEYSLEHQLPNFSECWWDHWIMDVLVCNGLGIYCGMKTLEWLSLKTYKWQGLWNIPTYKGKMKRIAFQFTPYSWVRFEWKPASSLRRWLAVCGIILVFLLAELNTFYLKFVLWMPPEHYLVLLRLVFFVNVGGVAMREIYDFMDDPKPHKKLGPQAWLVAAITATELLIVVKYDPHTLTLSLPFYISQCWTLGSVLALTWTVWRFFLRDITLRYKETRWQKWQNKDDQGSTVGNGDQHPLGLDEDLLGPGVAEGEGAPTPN
UniProt P06454: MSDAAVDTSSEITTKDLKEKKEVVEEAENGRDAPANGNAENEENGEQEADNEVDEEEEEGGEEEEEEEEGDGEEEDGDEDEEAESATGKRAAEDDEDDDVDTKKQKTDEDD
UniProt Q9UL46, whole entry, looked up: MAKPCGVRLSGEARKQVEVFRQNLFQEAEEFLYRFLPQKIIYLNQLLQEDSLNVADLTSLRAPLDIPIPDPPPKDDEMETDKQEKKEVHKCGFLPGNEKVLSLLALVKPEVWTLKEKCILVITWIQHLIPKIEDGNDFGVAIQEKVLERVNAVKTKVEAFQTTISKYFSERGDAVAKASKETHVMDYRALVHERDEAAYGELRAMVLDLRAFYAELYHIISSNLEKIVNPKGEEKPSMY
UniProt Q15185: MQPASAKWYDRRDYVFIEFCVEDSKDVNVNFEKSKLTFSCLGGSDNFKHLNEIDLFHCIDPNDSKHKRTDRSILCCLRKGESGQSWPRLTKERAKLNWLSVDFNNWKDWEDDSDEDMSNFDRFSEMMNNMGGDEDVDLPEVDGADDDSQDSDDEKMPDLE
UniProt P43686, whole entry, looked up: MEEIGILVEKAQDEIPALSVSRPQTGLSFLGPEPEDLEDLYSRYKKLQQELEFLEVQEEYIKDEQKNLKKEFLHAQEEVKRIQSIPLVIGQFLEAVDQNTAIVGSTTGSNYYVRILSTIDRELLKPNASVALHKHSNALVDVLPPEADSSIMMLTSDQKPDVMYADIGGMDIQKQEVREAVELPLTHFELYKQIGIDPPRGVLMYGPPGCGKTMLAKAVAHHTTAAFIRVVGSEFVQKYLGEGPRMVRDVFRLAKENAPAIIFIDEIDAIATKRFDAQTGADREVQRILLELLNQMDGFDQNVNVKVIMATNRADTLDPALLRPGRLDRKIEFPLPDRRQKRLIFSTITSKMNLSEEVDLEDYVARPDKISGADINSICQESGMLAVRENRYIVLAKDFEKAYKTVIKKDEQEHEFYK
UniProt O00487, whole entry, looked up: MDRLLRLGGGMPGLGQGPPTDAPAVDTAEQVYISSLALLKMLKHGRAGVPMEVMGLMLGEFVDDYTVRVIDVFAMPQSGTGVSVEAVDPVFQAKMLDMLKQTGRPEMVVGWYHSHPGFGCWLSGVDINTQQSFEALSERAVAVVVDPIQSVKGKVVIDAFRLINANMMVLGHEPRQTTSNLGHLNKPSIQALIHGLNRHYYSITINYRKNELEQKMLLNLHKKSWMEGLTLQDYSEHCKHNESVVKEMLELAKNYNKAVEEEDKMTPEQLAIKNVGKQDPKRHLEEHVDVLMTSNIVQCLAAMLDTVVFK
UniProt P49721: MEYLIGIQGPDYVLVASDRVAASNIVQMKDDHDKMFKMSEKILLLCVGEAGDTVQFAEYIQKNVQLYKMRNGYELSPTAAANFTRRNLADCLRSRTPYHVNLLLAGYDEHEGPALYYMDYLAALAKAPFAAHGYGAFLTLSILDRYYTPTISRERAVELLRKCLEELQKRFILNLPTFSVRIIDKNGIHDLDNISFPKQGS

[1] = compound: CCCS(=O)(=O)Nc1ccc(F)c(C(=O)c2c[nH]c3ncc(Cl)cc23)c1F
Procedure, shortened: as §1

barasertib = compound: CCN(CCCOc1ccc2c(Nc3cc(CC(=O)Nc4cccc(F)c4)[nH]n3)ncnc2c1)CCOP(=O)(O)O [barasertib]
Procedure, shortened: as §1

[2] = compound: CC[C@@H]1C(=O)N(C)c2cnc(Nc3ccc(C(=O)NC4CCN(C)CC4)cc3OC)nc2N1C1CCCC1
Procedure, shortened: as §1

volasertib = compound: CC[C@@H]1C(=O)N(C)c2cnc(Nc3ccc(C(=O)N[C@H]4CC[C@H](N5CCN(CC6CC6)CC5)CC4)cc3OC)nc2N1C(C)C [volasertib]
Procedure, shortened: as §1

[3] = compound: CCn1c(C(=O)N(C2CC2)C2CC2)cc2c3c(ncn3C)c(Nc3cc(C)n(C)n3)nc21
Procedure, shortened: as §1

[4] = compound: CCn1cc(-c2ccnc3[nH]c(-c4cccc(CN(C)C)c4)cc23)c(-c2ccc(NC(=O)N(C)C)cc2)n1
Procedure, shortened: as §1

[5] = compound: CN1CCC(CNc2ccc3ncc(-c4cccc(OC(F)(F)F)c4)n3n2)CC1
Procedure, shortened: as §1

saracatinib = compound: CN1CCN(CCOc2cc(OC3CCOCC3)c3c(Nc4c(Cl)ccc5c4OCO5)ncnc3c2)CC1 [saracatinib]
Procedure, shortened: as §1

sotrastaurin = compound: CN1CCN(c2nc(C3=C(c4c[nH]c5ccccc45)C(=O)NC3=O)c3ccccc3n2)CC1 [sotrastaurin]
Procedure, shortened: as §1

| Target | log2 fold change (vemurafenib) | log2 fold change [1] | log2 fold change (barasertib) | log2 fold change [2] | log2 fold change (volasertib) | log2 fold change [3] | log2 fold change [4] | log2 fold change [5] | log2 fold change (saracatinib) | log2 fold change (sotrastaurin) |
| --- | --- | --- | --- | --- | --- | --- | --- | --- | --- | --- |
| PSME4 (UniProt Q14997) | inactive: 0.044 | inactive: 0.001 | inactive: 0.038 | inactive: -0.04 | inactive: -0.056 | inactive: 0.023 | inactive: -0.169 | inactive: 0.07 | inactive: 0.023 | inactive: 0.031 |
| PSMB4 (UniProt P28070) | inactive: 0.008 | inactive: -0.019 | inactive: -0.006 | inactive: 0.011 | inactive: 0.027 | inactive: -0.001 | inactive: -0.02 | inactive: 0.053 | inactive: -0.023 | inactive: -0.016 |
| PSMC3 (UniProt E9PLG2) | inactive: -0.088 | – | – | – | – | – | – | – | – | – |
| PUS1 (UniProt Q9Y606) | inactive: 0.026 | inactive: 0.002 | inactive: 0.055 | inactive: -0.086 | inactive: -0.077 | inactive: 0.028 | inactive: -0.058 | inactive: -0.02 | inactive: 0.035 | inactive: -0.027 |
| PUS7L (UniProt Q9H0K6) | inactive: -0.016 | inactive: 0.008 | inactive: -0.004 | inactive: 0.015 | inactive: -0.013 | inactive: -0.006 | inactive: -0.066 | inactive: 0.058 | inactive: -0.015 | inactive: 0.008 |
| PSMA2 (UniProt P25787) | inactive: -0.021 | inactive: -0.006 | inactive: -0.037 | inactive: 0.011 | inactive: 0.019 | inactive: -0.015 | inactive: 0.036 | inactive: 0.011 | inactive: 0 | inactive: 0.001 |
| PSMD9 (UniProt O00233) | inactive: 0.002 | inactive: 0.039 | inactive: -0.023 | inactive: 0.034 | inactive: -0.002 | inactive: -0.001 | inactive: -0.122 | inactive: 0.041 | inactive: 0.004 | inactive: 0.004 |
| PSMC3IP (UniProt Q9P2W1) | inactive: 0 | inactive: 0.011 | inactive: -0.01 | inactive: 0.022 | inactive: -0.004 | inactive: 0.03 | inactive: 0.029 | inactive: -0.01 | inactive: -0.005 | inactive: -0.003 |
| PTGFRN (UniProt Q9P2B2) | inactive: -0.002 | inactive: 0.016 | inactive: 0.016 | inactive: 0.019 | inactive: 0.013 | inactive: -0.009 | inactive: -0.013 | inactive: 0.051 | inactive: 0.016 | inactive: 0.05 |
| PSMA4 (UniProt P25789) | inactive: 0 | inactive: 0 | inactive: -0.035 | inactive: 0.013 | inactive: 0.038 | inactive: -0.012 | inactive: -0.024 | inactive: 0.022 | inactive: -0.004 | inactive: 0.023 |
| PSMC6 (UniProt P62333) | inactive: -0.003 | inactive: -0.01 | inactive: -0.001 | inactive: -0.051 | inactive: -0.056 | inactive: 0.028 | inactive: 0.011 | inactive: -0.012 | inactive: 0.009 | inactive: 0.008 |
| PSMA7 (UniProt O14818) | inactive: -0.007 | inactive: -0.038 | inactive: -0.03 | inactive: 0.014 | inactive: 0.018 | inactive: -0.009 | inactive: 0.015 | inactive: -0.039 | inactive: 0.004 | inactive: 0.006 |
| PTPN12 (UniProt Q05209) | inactive: 0.011 | inactive: 0.019 | inactive: 0.027 | inactive: -0.019 | inactive: -0.011 | inactive: -0.02 | inactive: -0.005 | inactive: -0.021 | inactive: 0.002 | inactive: 0.001 |
| PSMB9 (UniProt P28065) | inactive: -0.105 | inactive: 0.037 | inactive: 0.158 | active: 0.335 | inactive: 0.028 | inactive: -0.06 | inactive: -0.165 | inactive: 0.027 | inactive: 0.037 | inactive: 0.018 |
| PSMG3 (UniProt Q9BT73) | inactive: 0.012 | inactive: 0.016 | inactive: 0.016 | inactive: 0.033 | inactive: 0.018 | inactive: 0.003 | inactive: 0.105 | inactive: -0.027 | inactive: -0.037 | inactive: -0.012 |
| PUM3 (UniProt Q15397) | inactive: 0.04 | inactive: 0.04 | inactive: 0.034 | inactive: -0.022 | inactive: 0.011 | inactive: -0.031 | inactive: -0.014 | inactive: 0.003 | inactive: 0.011 | inactive: 0.021 |

Two entries drawn at random from those above:

| Target | log2 fold change (vemurafenib) | log2 fold change [1] | log2 fold change (barasertib) | log2 fold change [2] | log2 fold change (volasertib) | log2 fold change [3] | log2 fold change [4] | log2 fold change [5] | log2 fold change (saracatinib) | log2 fold change (sotrastaurin) |
| --- | --- | --- | --- | --- | --- | --- | --- | --- | --- | --- |
| PSMB9 (UniProt P28065) | inactive: -0.105 | inactive: 0.037 | inactive: 0.158 | active: 0.335 | inactive: 0.028 | inactive: -0.06 | inactive: -0.165 | inactive: 0.027 | inactive: 0.037 | inactive: 0.018 |
| PSMB4 (UniProt P28070) | inactive: 0.008 | inactive: -0.019 | inactive: -0.006 | inactive: 0.011 | inactive: 0.027 | inactive: -0.001 | inactive: -0.02 | inactive: 0.053 | inactive: -0.023 | inactive: -0.016 |

(further entries)

| Target | log2 fold change (vemurafenib) | log2 fold change [1] | log2 fold change (barasertib) | log2 fold change [2] | log2 fold change (volasertib) | log2 fold change [3] | log2 fold change [4] | log2 fold change [5] | log2 fold change (saracatinib) | log2 fold change (sotrastaurin) |
| --- | --- | --- | --- | --- | --- | --- | --- | --- | --- | --- |
| PTDSS2 (UniProt Q9BVG9) | inactive: -0.056 | inactive: 0.013 | inactive: 0.032 | inactive: -0.074 | inactive: -0.027 | inactive: -0.034 | inactive: -0.228 | inactive: 0.084 | inactive: 0.063 | inactive: 0.039 |
| PTMA (UniProt P06454) | inactive: 0.022 | inactive: -0.049 | inactive: 0.018 | inactive: 0.06 | inactive: 0.004 | inactive: -0.031 | active: 0.569 | active: -0.337 | inactive: -0.061 | inactive: 0.04 |
| PSME2 (UniProt Q9UL46) | inactive: 0.012 | inactive: -0.012 | inactive: -0.038 | inactive: 0.012 | inactive: 0.02 | inactive: 0.001 | inactive: -0.034 | inactive: 0.156 | inactive: -0.003 | inactive: -0.002 |
| PRPS1 (UniProt B1ALA9) | inactive: 0.009 | inactive: 0.003 | inactive: 0.018 | inactive: 0.03 | inactive: 0.025 | inactive: 0 | inactive: -0.001 | inactive: 0.036 | inactive: -0.046 | inactive: -0.073 |
| PTGES3 (UniProt Q15185) | inactive: -0.017 | inactive: 0.019 | inactive: -0.016 | inactive: 0.04 | inactive: -0.005 | inactive: -0.004 | inactive: 0.109 | inactive: -0.021 | inactive: -0.013 | inactive: -0.033 |
| PSMC1 (UniProt P62191) | inactive: 0.006 | inactive: 0.028 | inactive: 0.003 | inactive: -0.037 | inactive: -0.028 | inactive: 0.048 | inactive: 0.103 | inactive: 0 | inactive: -0.015 | inactive: 0.005 |
| PSPH (UniProt P78330) | inactive: 0.014 | inactive: -0.021 | inactive: -0.007 | inactive: 0.017 | inactive: 0.023 | inactive: -0.037 | inactive: -0.061 | inactive: 0.044 | inactive: -0.018 | inactive: 0.006 |
| PSMD2 (UniProt Q13200) | inactive: -0.002 | inactive: 0.013 | inactive: -0.003 | inactive: -0.027 | inactive: -0.018 | inactive: -0.001 | inactive: 0.071 | inactive: -0.036 | inactive: 0.002 | inactive: 0.005 |
| PSAT1 (UniProt Q9Y617) | inactive: -0.006 | inactive: 0.002 | inactive: -0.054 | inactive: 0.062 | inactive: 0.027 | inactive: 0.018 | inactive: 0.016 | inactive: 0.014 | inactive: -0.019 | inactive: 0 |
| PSMD11 (UniProt O00231) | inactive: -0.027 | inactive: 0.004 | inactive: 0.005 | inactive: -0.031 | inactive: -0.032 | inactive: -0.007 | inactive: -0.011 | inactive: -0.008 | inactive: 0.009 | inactive: -0.022 |
| PSMC4 (UniProt P43686) | inactive: 0.003 | inactive: 0.01 | inactive: 0.033 | inactive: -0.029 | inactive: -0.025 | inactive: -0.021 | inactive: 0.028 | inactive: -0.011 | inactive: 0.001 | inactive: 0.003 |
| PTGR2 (UniProt Q8N8N7) | inactive: -0.029 | inactive: 0.04 | inactive: -0.022 | inactive: 0.056 | inactive: -0.039 | inactive: 0.069 | inactive: 0.012 | inactive: 0.092 | inactive: -0.021 | inactive: 0.1 |
| PSMD14 (UniProt O00487) | inactive: 0.001 | inactive: 0 | inactive: 0.082 | inactive: -0.005 | inactive: -0.032 | inactive: 0.045 | inactive: -0.012 | inactive: -0.013 | inactive: 0.005 | inactive: -0.016 |
| PSMB2 (UniProt P49721) | inactive: 0.005 | inactive: -0.009 | inactive: 0.047 | inactive: -0.002 | inactive: 0.041 | inactive: -0.021 | inactive: -0.05 | inactive: 0.01 | inactive: -0.016 | inactive: -0.043 |
| PTPN11 isoform 1 (UniProt Q06124) | inactive: -0.019 | inactive: 0.005 | inactive: 0.006 | inactive: 0.013 | inactive: -0.015 | inactive: 0.041 | inactive: 0.01 | inactive: 0.022 | inactive: -0.015 | inactive: 0.015 |
